The target in the assay is flag-tagged NPM1 (UniProt P06748). In words: co-IP; H1299 cells co-transfected with HA-tagged Puf-A (wild type or mutant) and flag-tagged NPM1; lysates precipitated with antibodies against HA or flag, immunoblotted with tag antibodies. On the technique in general: Immunoblotting shows a protein as a band on a membrane.

The chains behind the UniProt entries cited, without tags or fusion partners.
UniProt P06748: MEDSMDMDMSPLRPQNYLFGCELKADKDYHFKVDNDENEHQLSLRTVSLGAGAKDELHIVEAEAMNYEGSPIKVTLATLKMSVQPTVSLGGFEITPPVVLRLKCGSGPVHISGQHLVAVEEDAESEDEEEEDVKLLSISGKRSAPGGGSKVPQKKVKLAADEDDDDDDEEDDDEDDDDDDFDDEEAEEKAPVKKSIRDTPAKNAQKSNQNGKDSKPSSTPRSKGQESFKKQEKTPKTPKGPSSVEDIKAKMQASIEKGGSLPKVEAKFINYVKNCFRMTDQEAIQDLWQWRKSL

No constants are given. Whether binding was seen depends on the method and setting. In cells and extracts the contact can be indirect. Sequences can lack the tags named with a protein.

B1: HA-tagged Puf-A mutant (478RRR480 to 478GGG480) (protein, UniProt Q15397 1-648)
chain: MEVKGKKQFTGKSTKTAQEKNRFHKNSDSGSSKTFPTRKVAKEGGPKVTSRNFEKSITKLGKKGVKQFKNKQQGDKSPKNKFQPANKFNKKRKFQPDGRSDESAAKKPKWDDFKKKKKELKQSRQLSDKTNYDIVVRAKQMWEILRRKDCDKEKRVKLMSDLQKLIQGKIKTIAFAHDSTRVIQCYIQYGNEEQRKQAFEELRDDLVELSKAKYSRNIVKKFLMYGSKPQIAEIIRSFKGHVRKMLRHAEASAIVEYAYNDKAILEQRNMLTEELYGNTFQLYKSADHRTLDKVLEVQPEKLELIMDEMKQILTPMAQKEAVIKHSLVHKVFLDFFTYAPPKLRSEMIEAIREAVVYLAHTHDGARVAMHCLWHGTPKDRKVIVKTMKTYVEKVANGQYSHLVLLAAFDCIDDTKLVKQIIISEIISSLPSIVNDKYGRKVLLYLLSPRDPAHTVREIIEVLQKGDGNAHSKKDTEVGGGELLESISPALLSYLQEHAQEVVLDKSACVLVSDILGSATGDVQPTMNAIASLAATGLHPGGKDGELHIAEHPAGHLVLKWLIEQDKKMKENGREGCFAKTLVEHVGMKNLKSWASVNRGAIILSSLLQSCDLEVANKVKAALKSLIPTLEKTKSTSKGIEILLEKLST
For the molecule B1, the binding entry is “no binding”.

The record behind these values is article PMC8856959.
